Measurements from patent US20050203117A1, “Treating allergic and inflammatory conditions” (priority 2002, published 2005).

Conditions: over 3,200 seasonal allergic rhinitis patients, 4 double-blind, randomized clinical trials

Clc1ccc2c(c1)CCc1cccnc1C2=C1CCNCC1 [desloratadine]
clinical efficacy in seasonal rhinitis: demonstrated the efficacy
